Measurements from PubChem BioAssay AID1347076 (National Center for Advancing Translational Sciences (NCATS), 2019).
About 13,000 (3.2%) of roughly 400,000 compounds were called active. The inconclusive results got no clear call from the source; some entries with a clear call stand among them for comparison. The call rests on the fitted dose curve; in most records, active means well fitted cell-killing curve with a large enough effect; inconclusive means small, poorly fitted or top-dose-only effect, or effect the other way; inactive means flat fitted curve, though single readings scatter. Potencies of inconclusive entries are doubtful fits and often do not repeat.

Experiment: qHTS assay for MDR1-selective chemotherapeutics: Primary screen using the drug-selected MDR subline cells KB-V1; further: nearly all actives have a fitted effect of over 60% in size
Details: KB-V1 MDR cells viability, CellTiter-Glo, 72 h; activity change, negative = cytotoxicity: at 46.1 µM (top of the series)
Summary of the method: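 KB-V1 MDR subline cells in DMEM (phenol-red free, 10% FBS) exposed to compounds in qHTS concentration series for 72 h at 37 degrees C. Viability read by CellTiter-Glo luminescence; concentration-effect curves fitted after normalization and correction.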
On the % scale 0 is the no-effect control and ±100 the full control effect; potency means the concentration at half of the fitted maximal effect.

Row | Structure (SMILES) | Potency | activity change, negative = cytotoxicity
1 | C/C(N)=C(/C#N)C(=O)COC(=O)c1ccccc1Cc1ccccc1 | inconclusive: 18.4 µM [cytotoxic, single point] | 
2 | COc1ccc(-n2c(-c3ccc(Cl)cc3)c[nH]c2=S)cc1 |  | inactive: 17.8%
3 | COc1cccc(C(C(=O)NC2CCCC2)N(Cc2cccnc2)C(=O)Cc2cccs2)c1 (stereo not drawn) | inconclusive: 16.4 µM [cytotoxic, partial curve, poor fit] | 
4 | CC(C)c1ccc(OCC(=O)Nc2c3c(nn2C(C)(C)C)CS(=O)(=O)C3)cc1 | inconclusive: 20.6 µM [cytotoxic, partial curve, poor fit] | 
5 | COc1ccc(C(=O)Nc2cccc(OC(=O)c3ccc(C)c(C)c3)c2)cc1 |  | inactive: -0.527%
6 | CCN(CC)CC(=O)c1c(C)n(C)c2ccc(OC)cc12 | inconclusive: 16.4 µM [cytotoxic, single point] | 
7 | CCc1ccc(NC(=O)Cn2nnc(C(=O)NCCc3ccc(OC)c(OC)c3)c2N)cc1 | inconclusive: 2.59 µM [rising, full curve] | 
8 | CNC(=O)c1cc(-c2cccs2)on1 | inconclusive: 29.1 µM [cytotoxic, single point] | 
9 | O=c1[nH]ncc(N/N=C\c2ccncc2)c1Cl | active: 20.6 µM | 
10 | COc1ccc(C=NNC(=O)c2cc(C)oc2C)cc1O |  | inconclusive: -96.3%
11 | Cc1cc2c(sc3c(C)ccc(C)c32)c(C)n1 | inconclusive: 29.1 µM [cytotoxic, single point] | 
12 | COc1ccc(NC(=O)CN2C(=O)NC3(CCCC3)C2=O)cc1 | inconclusive: 29.1 µM [rising, partial curve, poor fit] | 
13 | COc1cc(OC)c2c(-c3cccc(-c4ccc(O)cc4)c3)cc(=O)oc2c1 | inconclusive: 14.6 µM [cytotoxic, partial curve, poor fit] | 
14 | COCCNc1cc(N)c([N+](=O)[O-])cc1[N+](=O)[O-] | inconclusive: 20.6 µM [cytotoxic, single point] | 
15 | COc1ccc(CNCCC(c2ccc(OC(C)C)cc2)c2ccccc2OC)cc1 (stereo not drawn) | active: 20.6 µM | 
16 | COc1ccccc1C=NNC(=O)C(=O)NN=Cc1ccccc1OC |  | inactive: 25.1%
17 | CN(c1ccccc1C(=O)Nc1cccnc1)S(C)(=O)=O | inconclusive: 35.5 µM [cytotoxic, single point] | 
18 | CCn1c(SCC(=O)Nc2ccc3c(c2)OCO3)nc2ccccc21 | inconclusive: 16.4 µM [cytotoxic, single point] | 
19 | Cc1cc(N/N=C/c2ccc(F)cc2)nc(NCc2ccccc2)n1 | inconclusive: 29.1 µM [cytotoxic, single point] | 
20 | CC(C)(C)C1CCC(OC(=O)c2ccncc2)CC1 (stereo not drawn) | inconclusive: 23.1 µM [rising, partial curve, poor fit] | 
21 | CN(C(=O)CSc1cccc[n+]1[O-])C1CCCCC1 | inconclusive: 25.9 µM [rising, single point] | 
22 | CO/N=C/c1ccc(Oc2ccc([N+](=O)[O-])cc2[N+](=O)[O-])c(OC)c1 | inconclusive: 29.1 µM [cytotoxic, single point] | 
23 | O=C(Nc1ccncc1)c1cc(C2CCCCN2C(=O)CCc2ccccc2)on1 (stereo not drawn) | inconclusive: 25.9 µM [cytotoxic, single point] | 
24 | CC(C)(C)n1c(O)c2n(c1=O)Cc1ccccc1N=C2c1ccccc1 |  | inactive: 12.9%
25 | CCOC(=O)C(=O)NN=C(c1ccccc1)c1ccccc1 | inconclusive: 11.6 µM [rising, partial curve] | 

An excerpt from above in order of molecular weight, rising.
Row | Structure (SMILES) | Potency | activity change, negative = cytotoxicity
8 | CNC(=O)c1cc(-c2cccs2)on1 | inconclusive: 29.1 µM [cytotoxic, single point] | 
12 | COc1ccc(NC(=O)CN2C(=O)NC3(CCCC3)C2=O)cc1 | inconclusive: 29.1 µM [rising, partial curve, poor fit] | 
16 | COc1ccccc1C=NNC(=O)C(=O)NN=Cc1ccccc1OC |  | inactive: 25.1%

Next part.

Row | Structure (SMILES) | Potency | activity change, negative = cytotoxicity
26 | Cc1cc(Cl)c(S(=O)(=O)Nc2cc(S(=O)(=O)N3CCOCC3)ccc2F)cc1OCC(N)=O |  | inactive: -1.04%
27 | O=C(Nc1ccccc1C(=O)NCc1cccnc1)c1ccccc1Cl | inconclusive: 14.6 µM [cytotoxic, partial curve] | 
28 | Cc1ccc(N2C(=O)[C@@H]3[C@H](C2=O)C2c4ccccc4C=NN2[C@@H]3C(=O)c2ccc(Cl)cc2)cc1 (stereo partly drawn) | inconclusive: 2.31 µM [cytotoxic, partial curve, poor fit] | 
29 | COc1ccc(C(=O)n2c(-c3ccco3)nc3ccccc32)cc1 | inconclusive: 29.1 µM [cytotoxic, single point] | 
30 | O=C(NC1CCCCC1)c1[nH]c(C(F)(F)F)nc1-c1ccccc1 |  | inactive: -9.3%
31 | CC(C)CCNC(=O)C(c1ccco1)N(CCCO)C(=O)Cn1nnc(-c2ccc(F)cc2)n1 (stereo not drawn) |  | inactive: -31.9%
32 | CCN(CC)S(=O)(=O)c1ccc(N/N=C(\C)c2cccnc2)nc1 |  | inactive: -13.8%
33 | Nc1nc2c(nnn2C2CC(O)C(CO)O2)c(=O)[nH]1 (stereo not drawn) | active: 1.3 µM | 
34 | COc1ccc(S(=O)(=O)N2CCCC2C(=O)Nc2nccs2)cc1 (stereo not drawn) | inconclusive: 16.4 µM [cytotoxic, single point] | 
35 | CCOc1cc(/C=N/O)ccc1OCc1ccc(C)cc1 | inconclusive: 29.1 µM [cytotoxic, single point] | 
36 | CN(N=Nc1nc[nH]c1C(N)=O)C1CCCCC1 | inconclusive: 18.4 µM [cytotoxic, partial curve, poor fit] | 
37 | CCOc1ccc(C(=O)Nc2c(C)nc(Nc3ccccc3)nc2Nc2ccccc2)cc1OCC | inconclusive: 29.1 µM [cytotoxic, single point] | 
38 | COc1cc(/C=N/NC(=O)c2ccc(CN3C(=O)c4cccc5cccc3c45)cc2)cc(OC)c1O |  | inactive: -2.74%
39 | CCCn1c2c(c(O)c(C(=O)Nc3ccc(OCC)cc3)c1=O)CCCC2 | inconclusive: 7.31 µM [cytotoxic, partial curve] | 
40 | CCCCn1c(N)c(N(CCOC)C(=O)c2c(C)noc2C)c(=O)[nH]c1=O | inconclusive: 29.1 µM [rising, single point] | 
41 | OC(COc1cc(Cl)c(Cl)cc1Cl)CN1CCN(c2ncccn2)CC1 (stereo not drawn) | inconclusive: 23.1 µM [cytotoxic, single point] | 
42 | COc1ccc(OC)c(S(=O)(=O)N2CCC(NC(=O)c3ccccc3)CC2)c1 |  | inactive: 14%
43 | CC(OC(=O)c1ccc(O)cc1)C(=O)Nc1ccc(Oc2ccccc2)cc1 (stereo not drawn) |  | inactive: -4.77%
44 | CC(=O)N1c2ccc(S(=O)(=O)N3CCCC(C(=O)Nc4cc(C)cc(C)c4)C3)cc2CC1C (stereo not drawn) |  | inactive: 2.91%
45 | COc1cccc(COc2ccc3c(C)cc(=O)oc3c2)c1 | inconclusive: 18.4 µM [cytotoxic, partial curve, poor fit] | 
46 | O=C(NC1CCCc2c1cnn2-c1ccccc1F)c1ccncc1 (stereo not drawn) | inconclusive: 3.26 µM [cytotoxic, partial curve] | 
47 | CCOC(=O)c1c(N)sc2c(OCC)c(Br)ccc12 |  | inactive: 4%
48 | Cn1c(=O)n(Cc2ccccc2Br)c2ccccc21 | inconclusive: 25.9 µM [cytotoxic, single point] | 
49 | COc1cc(Cl)ccc1OC1(C)CCN(Cc2ccc(-c3ccccn3)cc2)C1 (stereo not drawn) |  | inactive: -3.24%
50 | Cc1ccc(-c2nc3sc4c(c3c(=O)n2N)CC(C)(C)OC4)cc1 |  | inactive: 2.32%

Row | Structure (SMILES) | Potency | activity change, negative = cytotoxicity
51 | CC(C)CN(C(=O)CN(C)CC(=O)Nc1ccccc1C#N)c1c(N)n(CC(C)C)c(=O)[nH]c1=O | inconclusive: 29.1 µM [rising, single point] | 
52 | O=C(NCc1cccnc1)c1ccc(-c2cccc(Cl)c2Cl)o1 | inconclusive: 29.1 µM [cytotoxic, single point] | 
53 | COc1ccc(N2CCN(C(=O)C(=O)c3cn(CC(=O)N4CCCCCC4)c4ccccc34)CC2)cc1 | inconclusive: 8.2 µM [cytotoxic, partial curve] | 
54 | CCC(c1nnnn1C1CCCC1)N1CCN(c2ccccc2F)CC1 (stereo not drawn) | inconclusive: 18.4 µM [cytotoxic, partial curve] | 
55 | Brc1ccc(-c2csc(NNC3=NCCCCC3)n2)cc1 |  | inactive: 10.7%
56 | COc1ccccc1N1CCN(C(=O)CSc2nc(C)cc(=O)[nH]2)CC1 | inconclusive: 16.4 µM [rising, single point] | 
57 | Cc1cs/c(=N\N=C\c2ccc(O)cc2)n1Cc1ccco1 | inconclusive: 29.1 µM [cytotoxic, single point] | 
58 | c1ccc2oc(-c3ccn[nH]3)cc2c1 |  | inactive: 2.76%
59 | Cc1ccccc1NC(=O)Cc1nc(COC(=O)c2cc([N+](=O)[O-])ccc2NCCO)cs1 |  | inactive: -13.1%
60 | Clc1ccc(-c2nc3ccccc3[nH]2)cn1 |  | inactive: -13.5%
61 | CCOc1ccccc1CNC(=O)C1=C(C)C(=O)OC12CCN(C(C)=O)CC2 |  | inactive: 3.54%
62 | CCOC(=O)N1CCN(C2=C(NS(=O)(=O)c3ccc(C)cc3)C(=O)c3ccccc3C2=O)CC1 | inconclusive: 29.1 µM [cytotoxic, single point] | 
63 | Clc1ccc(-c2nnc(CCc3ccccc3)o2)c(Cl)c1 | inconclusive: 29.1 µM [cytotoxic, single point] | 
64 | O=C(c1ccc(Br)cc1)N1CCC(c2nc3ccccc3s2)CC1 |  | inactive: -20.4%
65 | CCOC(=O)c1[nH]c(C)c(CCC(=O)Nc2ccc(C)cc2Cl)c1C |  | inactive: -8.9%
66 | CC1CCCN(C(=O)c2cn(-c3ccccc3)nc2-c2cccnc2)C1 (stereo not drawn) |  | inactive: -30.1%
67 | CCSc1nnc(-c2cc3c(s2)-c2ccccc2CC3)o1 |  | inactive: -21.7%
68 | COc1ccc(S(=O)(=O)Nc2ccccc2N2CCOCC2)cc1OC | active: 23.1 µM | 
69 | COc1ccc(C(CNC(=O)c2cccc(S(=O)(=O)Nc3ccccc3OC)c2)N2CCCCC2)cc1 (stereo not drawn) |  | inactive: -3.76%
70 | Cc1cnc(CNC(=O)c2csc([C@@H]3C[C@H](O)[C@@H](CO)O3)n2)cn1 |  | inactive: 8.71%
71 | CCC1Oc2ccccc2N(CC(=O)Nc2ccc3c(c2)OCCO3)C1=O (stereo not drawn) | inconclusive: 16.4 µM [cytotoxic, single point] | 
72 | COc1ccc(NC(=O)CCn2nc(-c3ccc(Cl)cc3)c3ccccc3c2=O)cc1 |  | inactive: -0.799%
73 | CCn1nnc(NC(=O)c2ccc(-c3ccccc3[N+](=O)[O-])o2)n1 | inconclusive: 0.58 µM [cytotoxic, full curve, poor fit] | 
